Each structure is given as a SMILES string. Read-outs that look alike come from different tables or passages of the source. This is one part of the list.

The assay deals with T1, CTL2-GFP (C. trachomatis L2/434/Bu, GFP-expressing).
T1 construct: L2/434/Bu, GFP-expressing
More on the design: species or system HeLa; Intracellular C. trachomatis growth in HeLa cells, bulk GFP fluorescence relative to DMSO. The note with it: bulk GFP, single well, 28.5 h, 10 µM, inhibitor.

Take `O=C1Nc2cc(Cl)ccc2C2=NCCCN12` [CBK284385]: the “% of control remaining” value stood at 111.352%.

Turning to `O=C(O)c1cc(N/N=C/c2ccc(-c3ccc(Cl)c(C(=O)O)c3)o2)ccc1Cl` [CBK262483], the “% of control remaining” value is listed as 113.473%.

With `O=C(O)CCSC1CC(=O)N(c2ccc(F)cc2)C1=O` (stereo not drawn) [CBK276120], the “% of control remaining” value came to 124.963%.

Regarding `FC(F)(F)c1cccnc1OCCOc1ccc(Cl)cc1` [CBK116621], the “% of control remaining” value came to 129.371%.

Regarding `CCCC/C=C/c1cnc(N)c(N[C@H](C)c2ccccc2)n1` [CBK064148], the “% of control remaining” value stood at 114.372%.

On to `COc1nn(C)c(CO)c1Cc1c(Cl)cccc1Cl` [CBK092285T], for which the “% of control remaining” value is 123.379%.

As for `O=C(O)c1cccc(NS(=O)(=O)c2cccs2)c1` [CBK270068], the “% of control remaining” value is 168.229%.

As for `CS(=O)(=O)Nc1ccc(CNC(=O)c2ccccc2Nc2cccc(C(F)(F)F)c2)cc1` [CBK161732], the “% of control remaining” value is reported as 91.5775%.

As to `Clc1ccc(Cl)c(-c2ccc(CNCc3cccnc3)o2)c1` [CBK269720C], the “% of control remaining” value is 104.372%.

Regarding `O=c1c2c3c(sc2nc(SCc2cc(O)[nH]n2)n1Cc1ccco1)CCC3` [CBK268301], the “% of control remaining” value amounted to 150.113%.

On to `CCC1CCCCN1Cc1c(O)ccc2c(=O)c(Oc3ccc(OC)cc3)c(C(F)(F)F)oc12` (stereo not drawn) [CBK263727], for which the “% of control remaining” value was 121.378%.

Turning to `Cc1nn(CC(=O)N2CCCC2)c(=O)c2cc3occc3n12` [CBK283621], the “% of control remaining” value is on record as 118.815%.

In the case of `CC(C)C(=O)N[C@@H](C)Cn1nc(-c2cccs2)oc1=O` [CBK284335], the “% of control remaining” value was determined as 107.463%.

Turning to `CN(C)C(=O)c1ccc(-c2ccc(OC3CCN(C(=O)CC(C)(C)c4ccccc4)CC3)nc2)cc1` [CBK155047], the “% of control remaining” value is 72.3181%.

On to `COc1ccc(OC)c(NC(=O)NCCc2c[nH]cn2)c1` [CBK269956], for which the “% of control remaining” value is on record as 80.7098%.

For `CN(C)CCN(C)c1cc(C(F)(F)F)nc(NCc2ccc(Cl)cc2)n1` [CBK009668], the “% of control remaining” value is 113.325%.

As to `Cc1ccc(C2CC(=O)c3cnc(N)nc3C2)cc1` (stereo not drawn) [CBK288166], the “% of control remaining” value is given as 134.597%.

As to `COCCNc1nc2c(c(N3CCSCC3)n1)CCNCC2` [CBK307510], the “% of control remaining” value was 112.761%.

On to `CCn1nc(C)c(-c2cncn2CCn2nc(C)c(C)c2C)c1C` [CBK281782], for which the “% of control remaining” value is on record as 113.732%.

Consider `O=S(=O)(Nc1cc(O[C@@H]2CCNC2)c2occc2c1)c1ccccc1Br` [CBK200020C], for which the “% of control remaining” value stood at 116.165%.

In the case of `COc1ccc(Cl)cc1S(=O)(=O)N1CCN(Cc2ccc3c(c2)OCO3)CC1` [CBK266913], the “% of control remaining” value is given as 172.278%.

For `O=C(O)c1cccc(NS(=O)(=O)Cc2ccccc2[N+](=O)[O-])c1` [CBK038906], the “% of control remaining” value is given as 92.46%.

Regarding `COc1cc2c(cc1OC)CN(C(=O)CSc1nnc3ccccn13)CC2` [CBK287814], the “% of control remaining” value was determined as 115.755%.

On to `COc1cc(C(=O)NCc2ccccn2)cc(OC)c1OC` [CBK058552], for which the “% of control remaining” value is 100.949%.

Consider `CCOc1ccc2[nH]c3c(c2c1)CN(C(=O)C1(C)CCCO1)CC3` (stereo not drawn) [CBK282659], for which the “% of control remaining” value is listed as 113.247%.

`Cc1ccccc1C(c1ncccc1C)N(C)C(=O)C1CCN(Cc2ccc(Cl)c(Cl)c2)CC1` (stereo not drawn) [CBK148366]: the “% of control remaining” value is on record as 108.804%.

`Cc1nn(CC(=O)N2CCCC(C)C2)c(=O)c2cc3ccsc3n12` (stereo not drawn) [CBK284041]: the “% of control remaining” value came out at 162.045%.

As for `Nc1nc(OCc2ccc3c(c2)OCO3)cnc1/C=C/c1ccccc1` [CBK145123], the “% of control remaining” value was 117.525%.

Consider `COc1ccc(C2c3c(-c4cc(C)c(C)cc4O)n[nH]c3C(=O)N2Cc2cccnc2)cc1OC` (stereo not drawn) [CBK268846], for which the “% of control remaining” value is on record as 123.834%.

For the molecule `O=C(NCc1cccc(C(F)(F)F)c1)c1ccccc1-n1cccc1` [CBK149598], the “% of control remaining” value amounted to 110.14%.

For `Nc1cccc(Oc2ccc(C(=O)O)c(C(=O)O)c2)c1` [CBK261180], the “% of control remaining” value was found to be 110.027%.

On to `Nc1cc2ccccc2c(-c2ccsc2)n1` [CBK085710], for which the “% of control remaining” value stood at 98.0796%.

In the case of `COC(=O)c1ccc(-c2cc3ccccc3o2)nc1` [CBK149228], the “% of control remaining” value (Bulk GFP fluorescence) is given as 118.815%.

`Cc1cc(C)c2nc(-c3cccnc3)cc(C(=O)N3CCN(S(=O)(=O)c4ccc(F)cc4)CC3)c2c1` [CBK267726]: the “% of control remaining” value was found to be 134.565%.

For the molecule `C=CCN1C(=O)CC2(C1=O)C(=O)N(Cc1nc(-c3ccc(Cl)cc3)no1)c1ccc(OC)cc12` (stereo not drawn) [CBK075692], the “% of control remaining” value is recorded as 103.741%.

For the molecule `COc1ccc(C)cc1S(=O)(=O)Nc1cc(OCCN2CCOCC2)c2occc2c1` [CBK067419C], the “% of control remaining” value was found to be 88.4492%.

In the case of `COc1ncccc1C(=O)NCC(CC(=O)O)c1ccc(Cl)cc1` (stereo not drawn) [CBK287264], the “% of control remaining” value was 109.418%.

In the case of `CCn1c(COc2c(C)cccc2C)nnc1SCC(=O)N1c2ccccc2Sc2ccccc21` [CBK268103], the “% of control remaining” value was 113.456%.

As for `CC(=O)Nc1ccc(N2C(=O)c3ccc(S(=O)(=O)c4ccc5c(c4)C(=O)N(c4ccc(NC(C)=O)cc4)C5=O)cc3C2=O)cc1` [CBK262105], the “% of control remaining” value is listed as 100%.

As to `N#C/C(=C\Nc1ccc(S(N)(=O)=O)cc1)c1nc(-c2cccc([N+](=O)[O-])c2)cs1` [CBK262366], the “% of control remaining” value is recorded as 107.378%.

With `CCn1c(C)nc2cc(NC(=O)Cc3c(C)noc3C)ccc21` [CBK281834], the “% of control remaining” value was found to be 115.213%.

On to `COc1cc2c(cc1OC)CN(S(=O)(=O)c1cc(C(=O)O)ccc1Cl)CC2` [CBK296923], for which the “% of control remaining” value is given as 165.945%.

As to `CC(C)(CO)NC(=O)COc1ccc(Cl)cc1` [CBK261833], the “% of control remaining” value is listed as 106.631%.

In the case of `CC(C)N1CC(C(=O)N(C)C)C2(CCc3ccccc3C2O)C1` (stereo not drawn) [CBK286305], the “% of control remaining” value was 136.917%.

On to `O=C(NCc1ccsc1)N1CCCN(Cc2ccc(Cl)cc2)CC1` [CBK305450], for which the “% of control remaining” value is reported as 115.538%.

As for `Cc1ccc(C2=CCN(CC(=O)Nc3ccccn3)CC2)o1` [CBK283634], the “% of control remaining” value came out at 113.716%.

Take `Cc1cccn2cc(C(=O)NCCCn3cccn3)nc12` [CBK281749]: the “% of control remaining” value amounted to 159.008%.

Consider `OC(COc1ccc(-c2ccccc2)cc1)CN1CCN(Cc2ccccc2)CC1` (stereo not drawn) [CBK074855C], for which the “% of control remaining” value stood at 109.57%.

`CCc1cc(CNS(=O)(=O)Cc2cccc(F)c2)on1` [CBK283061]: the “% of control remaining” value was determined as 117.172%.

As to `Cc1nn(C)c(C)c1CN(C)C(=O)C(C)Cn1cc(Cl)cn1` (stereo not drawn) [CBK282187], the “% of control remaining” value came to 124.966%.

On to `CCCc1nnc(SC(C)C(=O)N2CCCc3ccccc32)[nH]1` (stereo not drawn) [CBK306480], for which the “% of control remaining” value is 92.1204%.

Consider `COc1ccc(CCNC(=O)CN2CCCC2Cn2cncn2)cc1` (stereo not drawn) [CBK304567], for which the “% of control remaining” value was 104.608%.

In the case of `COC(=O)[C@@H]1Cc2ncn(C(C)C)c2CN1C(=O)CC(C)(C)C` [CBK288988], the “% of control remaining” value was determined as 126.562%.

As for `O=C(Cn1ncc2cccn2c1=O)OCC(F)(F)F` [CBK283554], the “% of control remaining” value is 109.539%.

Consider `Cc1oc(-c2ccccc2)cc1C(=O)Nc1cc2ccccc2c(N2CCNCC2)n1` [CBK038938T], for which the “% of control remaining” value is 93.1206%.

With `Cc1ccc(-c2csc(NC(=O)CN3C(=O)CCC3=O)n2)c(C)c1` [CBK287348], the “% of control remaining” value amounted to 148.672%.

Consider `CC(N(C)CC(=O)NCc1ccc(OCC(N)=O)cc1)C(C)(C)C` (stereo not drawn) [CBK306338], for which the “% of control remaining” value is recorded as 138.648%.

As for `CC(C)[C@@H](CO)Nc1nc(-c2cc(C(F)(F)F)cc(C(F)(F)F)c2)cn2ccnc12` [CBK037496], the “% of control remaining” value amounted to 80.2982%.

Take `OC(COCc1ccc(Cl)cc1)CN1CCN(c2cccc(Cl)c2)CC1` (stereo not drawn) [CBK278315C]: the “% of control remaining” value was 100%.

Turning to `CC1(C)Cc2nc(N3CCOCC3)ncc2C(NC(=O)C2CCC2)C1` (stereo not drawn) [CBK306943], the “% of control remaining” value worked out at 136.023%.

As to `CCOC(=O)N1CCN(CC(=O)Nc2cc3c(cc2C(C)=O)OCO3)CC1` [CBK266163], the “% of control remaining” value is on record as 148.858%.

Turning to `O=C1CCCN1CP(=O)(O)CN1CCCCC1` [CBK262302], the “% of control remaining” value stood at 128.681%.

With `COc1ccc(Nc2cc(Cl)ccc2C(=O)Nc2ccncc2)cn1` [CBK107434], the “% of control remaining” value is on record as 77.1614%.

As for `O=C(NCc1cccnc1)c1ccc(-c2ccoc2)nc1` [CBK156275], the “% of control remaining” value was found to be 153.065%.

On to `CCCc1c(C(=O)NCCCN(C)C)cnn1-c1cc(Cl)cc(Cl)c1` [CBK107376], for which the “% of control remaining” value came to 148.662%.

Turning to `COc1cccc(NC(=O)c2sc(N)nc2-c2ccccc2)c1` [CBK072023], the “% of control remaining” value was found to be 122.645%.

Turning to `O=C(Nc1nnc(C(F)(F)F)s1)c1cc(Cl)ccc1Cl` [CBK095734], the “% of control remaining” value is 77.3334%.

Turning to `OC(CN1CCC2(CC1)CC(O)c1ccccc1O2)c1ccc(-c2ccccc2)cc1` (stereo not drawn) [CBK286347], the “% of control remaining” value is reported as 89.5561%.

For the molecule `CCOc1nccnc1N1CCNCC1` [CBK001899G], the “% of control remaining” value is given as 117.795%.

With `O=C(NCCc1cccs1)Nc1ccc(Cl)c(C(F)(F)F)c1` [CBK043775], the “% of control remaining” value came to 77.7628%.

`CC1CCN(Cc2ccc(-c3cn(CC(=O)NCc4ccc(Br)cc4F)nn3)cc2)CC1` [CBK165756C]: the “% of control remaining” value is recorded as 136.659%.

As to `COc1ccc(CC(=O)N2CCC(c3cccc(Cc4cccc(F)c4)n3)CC2)cc1` [CBK286504], the “% of control remaining” value is 126.182%.

Regarding `O=C(c1cc[nH]n1)N1CCC2(CC1)Nc1ccccc1-n1cccc12` [CBK283652], the “% of control remaining” value was 106.193%.

In the case of `Cc1cccn2c(CN3CCC(O)CC3)c(C(=O)N3CCOCC3)nc12` [CBK306546], the “% of control remaining” value is 124.231%.

As for `O=C(CN1CCN(Cc2ccc3c(c2)OCO3)CC1)Nc1ccc(SC(F)(F)F)cc1` [CBK074385], the “% of control remaining” value stood at 111.15%.

`O=C1C2CCCCC2C(=O)N1CCCN1CCC(c2nc(-c3ccc(F)cc3)c3ccccn23)CC1` (stereo not drawn) [CBK035972]: the “% of control remaining” value is reported as 100%.

In the case of `CCCCCC1=NN(C(=O)OCC)C(O)(C(F)(F)F)C1` (stereo not drawn) [CBK027739], the “% of control remaining” value worked out at 141.559%.

As to `O=C(O)c1cccc(N(CCO)CCO)c1` [CBK262419], the “% of control remaining” value stood at 117.517%.
